The supplement of paper PMC7024190
Where a name gives a salt, the structure may show the parent alone. The list shows a part of the results. Repeats in this data set agree poorly, so a single value says little.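 The cells were human embryonic kidney cells carrying a Renilla luciferase gene, driven by the HSV-TK promoter, on a plasmid put in briefly by transfection. This is the first-round screen of about ten thousand compounds, looking for ones that raise reporter output.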

tested on: HEK 293FT; experiment: log relative Renilla luciferase luminescence (reporter expression vs reference, reference not stated) (log (base not stated)); higher = higher recombinant reporter expression; conditions: 10 µM; time after transfection 48 h

Row | Structure (SMILES) | log
1 | O=C(C1CCCCC1)N1CC(=O)N2CCc3ccccc3C2C1 (centres undefined) [praziquantel] | 0.0779
2 | OC[C@H]1O[C@H](O[C@]2(CCl)O[C@H](CCl)[C@@H](O)[C@@H]2O)[C@H](O)[C@@H](O)[C@H]1Cl [sucralose] | 0.186
3 | O=C(O)[C@@H](O)[C@H](O)[C@H](O)[C@@H](O)C(=O)O [mucic acid] | 0.0267
4 | CN1CCC(=C2c3ccccc3CCc3cccnc32)CC1 [azatadine maleate] | -0.00821
5 | Nc1nc2ccc(OC(F)(F)F)cc2s1 [riluzole] | -0.143
6 | COc1ccc2c(c1)c(CC(=O)O)c(C)n2C(=O)c1ccc(Cl)cc1 [indomethacin] | 0.00732
7 | CC1(C)C=Cc2c(c3c(c4c(=O)c(-c5ccc(O)c(O)c5)coc24)OC(C)(C)CC3)O1 [isopomiferin] | 0.0843
8 | CC(C)(C)NCC(O)COc1cccc2c1CCC(=O)N2 (centres undefined) [carteolol hydrochloride] | -0.108
9 | C=C1c2c(Cl)ccc(O)c2C(=O)C2=C(O)[C@]3(O)C(=O)C(C(N)=O)=C(O)[C@@H](N(C)C)[C@@H]3[C@@H](O)[C@H]12.O=C(O)c1cc(S(=O)(=O)O)ccc1O [meclocycline sulfosalicylate] | 0.0671
10 | CC(=O)NCCCS(=O)(=O)O [acamprosate calcium] | -0.0343
11 | COc1ccc2c(c1OC)C(=O)O[C@@H]2[C@H]1c2c(cc3c(c2OC)OCO3)CCN1C [noscapine hydrochloride] | -0.278
12 | O=C(O)c1cc(/N=N/c2ccc(O)c(C(=O)O)c2)ccc1O [olsalazine sodium] | 0.0244
13 | CCOC(=O)O[C@]1(C(=O)COC(=O)CC)CC[C@H]2[C@@H]3CCC4=CC(=O)C=C[C@]4(C)[C@H]3[C@@H](O)C[C@@]21C [prednicarbate] | 0.0621
14 | CC(C(=O)O)c1ccc2c(c1)[nH]c1ccc(Cl)cc12 (centres undefined) [carprofen] | -0.000478
15 | CO/N=C(\C(=O)N[C@@H]1C(=O)N2C(C(=O)O)=C(CSc3nnnn3C)CS[C@H]12)c1csc(N)n1 [cefmenoxime hydrochloride] | -0.132
16 | O=C(O)C1CCCNC1 (centres undefined) [nipecotic acid] | 0.0174
17 | O=C1c2c(O)cccc2C([C@@H]2O[C@H](CO)[C@@H](O)[C@H](O)[C@H]2O)c2cc(CO)cc(O)c21 (some centres undefined) [aloin] | 0.0437
18 | Nc1nc2[nH]cnc2c(=S)[nH]1 [thioguanine] | 0.0176
19 | CN(C)C(=O)C(CCN1CCC(O)(c2ccc(Cl)cc2)CC1)(c1ccccc1)c1ccccc1 [loperamide hydrochloride] | 0.164
20 | Cc1c(OCC(F)(F)F)ccnc1C[S@@+]([O-])c1nc2ccccc2[nH]1 [dexlansoprazole] | -0.0767
21 | O=c1ccc2cc(O)c(O)cc2o1 [esculetin] | 0.182
22 | C[C@H](CCC(=O)O)[C@H]1CC[C@H]2[C@@H]3[C@H](O)C[C@@H]4C[C@H](O)CC[C@]4(C)[C@H]3C[C@H](O)[C@]12C [cholic acid] | 0.0715

Row | Structure (SMILES) | log
23 | CC(=O)OC1CCC2(C)C(=CCC3C2CCC2(C)C(C(C)CCCC(C)C)CCC32)C1 (centres undefined) [cholesteryl acetate] | -0.0193
24 | CC(C)=CCC[C@@H](C)[C@H]1CC[C@@]2(C)C3=C(CC[C@]12C)[C@@]1(C)CC[C@H](O)C(C)(C)[C@@H]1CC3 [lanosterol] | 0.119
25 | O=C(OCC(O)CO)c1ccccc1Nc1ccnc2cc(Cl)ccc12 (centres undefined) [glafenine] | -0.0172
26 | CC(C(=O)O)c1ccc(-c2ccccc2)c(F)c1 (centres undefined) [flurbiprofen] | 0.0858
27 | Cc1cc(O)c2c(c1)C(=O)c1cccc(O)c1C2=O [chrysophanol] | 0.0319
28 | COc1cc2c(N3CCN(C(=O)Nc4ccc(OC(C)C)cc4)CC3)ncnc2cc1OCCCN1CCCCC1 [tandutinib] | 0.179
29 | C[C@H]1O[C@@H](O[C@H]2[C@@H](O)C[C@H](O[C@H]3[C@@H](O)C[C@H](O[C@H]4CC[C@@]5(C)[C@H](CC[C@@H]6[C@@H]5C[C@@H](O)[C@]5(C)[C@@H](C7=CC(=O)OC7)CC[C@]65O)C4)O[C@@H]3C)O[C@@H]2C)C[C@H](O)[C@@H]1O [digoxin] | -1.6
30 | COc1cc([S+](C)[O-])ccc1-c1nc2cccnc2[nH]1 (centres undefined) [sulmazole] | -0.0137
31 | NC[C@@H]1O[C@H](O[C@H]2[C@@H](O)[C@H](O[C@@H]3[C@@H](O)[C@H](N)C[C@H](N)[C@H]3O[C@H]3O[C@H](CO)[C@@H](O)[C@H](O)[C@H]3N)O[C@@H]2CO)[C@H](N)[C@@H](O)[C@@H]1O [paromomycin sulfate] | -0.0516
32 | COc1cc(C)c2c(c1C=O)Oc1c(c(C)c(O)c3c1C(O)OC3=O)OC2=O (centres undefined) [stictic acid] | 0.0121
33 | CC[C@]1(O)C[C@H]2CN(CCc3c([nH]c4ccccc34)[C@@](C(=O)OC)(c3cc4c(cc3OC)N(C=O)[C@H]3[C@@](O)(C(=O)OC)[C@H](OC(C)=O)[C@]5(CC)C=CCN6CC[C@]43[C@@H]65)C2)C1 [vincristine sulfate] | -0.262
34 | COc1ccccc1OCC(O)CO (centres undefined) [guaifenesin] | 0.13
35 | Cc1cc(=O)[nH]c(=S)[nH]1 [methylthiouracil] | 0.0868
36 | CC(=O)[C@H]1CC[C@H]2[C@@H]3C=CC4=CC(=O)CC[C@@]4(C)[C@@H]3CC[C@]12C [dydrogesterone] | -0.0915
37 | CN1[C@@H]2CC[C@H]1C[C@@H](OC(=O)c1c[nH]c3ccccc13)C2 [tropisetron hydrochloride] | -0.00296
38 | Cc1cccc(C)c1OCC(C)N (centres undefined) [mexiletine hydrochloride] | 0.134
39 | COc1ccc(/C=C/C(=O)Nc2ccccc2C(=O)O)cc1OC [tranilast] | 0.0457
40 | CC(=O)N1CCCC1C(=O)O (centres undefined) [n-acetylproline] | -0.0274
41 | CCOC(=O)C1=C(COCCN)NC(C)=C(C(=O)OC)C1c1ccccc1Cl (centres undefined) [amlodipine besylate] | 0.0166
42 | Oc1ccc(/C=C/c2cc(O)cc(O)c2)cc1 [resveratrol] | -0.333
43 | CC1(C)C2CCC1(C)C(O)C2 (centres undefined) [borneol] | 0.0192
44 | Oc1c(Cl)cc(Cl)c(Cl)c1Cc1c(O)c(Cl)cc(Cl)c1Cl [hexachlorophene] | 0.215

Two entries drawn at random from those above, as already listed:
Row | Structure (SMILES) | log
24 | CC(C)=CCC[C@@H](C)[C@H]1CC[C@@]2(C)C3=C(CC[C@]12C)[C@@]1(C)CC[C@H](O)C(C)(C)[C@@H]1CC3 [lanosterol] | 0.119
37 | CN1[C@@H]2CC[C@H]1C[C@@H](OC(=O)c1c[nH]c3ccccc13)C2 [tropisetron hydrochloride] | -0.00296
